Percent effect of library compounds

The chains behind the UniProt entries cited, without tags or fusion partners. Residues count along the entry.
UniProt Q8IDJ8, 1-583: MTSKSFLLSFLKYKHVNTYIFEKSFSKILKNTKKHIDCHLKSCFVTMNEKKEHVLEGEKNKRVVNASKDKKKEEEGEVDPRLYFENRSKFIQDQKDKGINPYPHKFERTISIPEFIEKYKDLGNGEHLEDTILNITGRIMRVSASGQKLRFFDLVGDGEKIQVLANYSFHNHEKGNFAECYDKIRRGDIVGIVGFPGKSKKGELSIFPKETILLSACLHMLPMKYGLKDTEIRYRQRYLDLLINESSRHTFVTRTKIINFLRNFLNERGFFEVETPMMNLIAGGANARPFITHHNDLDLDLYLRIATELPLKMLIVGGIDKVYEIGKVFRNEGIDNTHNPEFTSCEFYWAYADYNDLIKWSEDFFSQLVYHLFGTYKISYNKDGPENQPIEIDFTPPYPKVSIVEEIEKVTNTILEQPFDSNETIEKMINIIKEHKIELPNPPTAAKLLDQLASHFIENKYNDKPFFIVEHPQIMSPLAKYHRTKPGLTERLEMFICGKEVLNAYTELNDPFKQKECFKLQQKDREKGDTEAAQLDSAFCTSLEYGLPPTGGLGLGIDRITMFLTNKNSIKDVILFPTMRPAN
UniProt P9WFT3, whole entry: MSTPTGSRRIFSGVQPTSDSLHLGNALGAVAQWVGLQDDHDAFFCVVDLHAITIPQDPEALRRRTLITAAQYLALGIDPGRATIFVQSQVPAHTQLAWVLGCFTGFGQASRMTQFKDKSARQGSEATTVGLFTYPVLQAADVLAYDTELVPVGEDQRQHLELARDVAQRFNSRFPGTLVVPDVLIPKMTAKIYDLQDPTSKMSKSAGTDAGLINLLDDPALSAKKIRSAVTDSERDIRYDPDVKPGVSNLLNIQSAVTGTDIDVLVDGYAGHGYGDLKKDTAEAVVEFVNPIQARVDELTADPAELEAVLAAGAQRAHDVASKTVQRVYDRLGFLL

Each number is a percent effect as filed. The controls that fix the scale are not given in the record; negative values are as filed. This is an unselected part of the compounds tested. Two or more numbers in one place are separate tests of the same structure; such repeats can differ widely.

PfKRS1: 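Enzyme assay of the cytosolic lysyl-tRNA synthetase in 384-well plates, read by luminescence. Target: Lysine-tRNA ligase, Plasmodium falciparum 3D7 (UniProt Q8IDJ8). Compounds at 30 µM. Direction is inferred from only a few compounds that gave an IC50; most scored high, so higher reads as stronger inhibition. Of about 69,000 compounds tested this way, about 49 (0.071%) reached 50% or more in at least one test.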
MtTrpRS: 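Enzyme assay of tryptophanyl-tRNA synthetase; the read-out is not stated. Target: Tryptophan-tRNA ligase, Mycobacterium tuberculosis (UniProt P9WFT3). Compounds at 10 µM. Higher most likely means stronger inhibition; the record gives no direction and few retests gave an IC50. About 65,000 compounds were tested under these conditions; 0.098% (about 64) showed 50% or more at least once.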
Leishmania in macrophages: 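Cell assay of Leishmania donovani living inside macrophages; the read-out is not stated. Concentration: 30 µM. Higher reads as stronger inhibition (inferred: compounds with an IC50 in retests scored well above the rest). Size under these conditions: about 69,000 compounds, about 1,000 of them at 50% or above in at least one test.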

For CNC(=O)[C@@]12CCC3(CCN(C(=O)COC)CC3)[C@@H]1CN(S(C)(=O)=O)C2 the result was PfKRS1: 0.926%; MtTrpRS: -1.361%. Cc1csc(C(Cc2ccsc2)NC(=O)CN(C)Cc2ccccn2)n1 (centres unmarked) gave PfKRS1: -0.1013%; MtTrpRS: -5.028%. O=C(NCc1ccccc1)c1nc2c(o1)CN(C(=O)c1cccnc1)C2.O=C(O)C(F)(F)F read Leishmania in macrophages: 16.99%. With O=C(NCCCN1CCCC1=O)c1nc(-c2ccc3[nH]ccc3c2)no1 the screen gave PfKRS1: 2.134%; MtTrpRS: -1.19%; Leishmania in macrophages: -1.943%.

O=C(NCc1ccccn1)[C@@]12CCO[C@@H]1CCN(C1CCCC1)C2 gave PfKRS1: 3.422%. With Cc1cc2n(n1)[C@@H](C(F)(F)F)C[C@@H](C1CCCN(C(=O)C(C)C)C1)N2 (some centres unmarked) the screen gave PfKRS1: 2.081%; MtTrpRS: -2.377%; Leishmania in macrophages: -4.601% & 0.5788%. For Cc1c(C2c3nc[nH]c3CCN2CCOCc2ccccc2)cnn1C (centres unmarked) the result was PfKRS1: 4.75%; MtTrpRS: -3.333%; Leishmania in macrophages: 18.16%. COc1cccc(CN(C)Cc2cc(C#N)ccc2F)c1OC read PfKRS1: 2.406%; MtTrpRS: -0.4036%; Leishmania in macrophages: 20.71%.

[H][C@]12CC[C@@]3(N=C(C)N(CC(C)C)C3=O)[C@@]1([H])CN(C(=O)NC(C)C)C2 gave Leishmania in macrophages: -18.48%. COc1cccc(-c2ncc3c(n2)N(C)CCN(CCN(C)C)C3=O)c1 read PfKRS1: 2.371%; Leishmania in macrophages: 45.49% & 9.028%. For CCn1c(N)nc2cc(C(=O)N3Cc4ccccc4C3)cnc21 the result was PfKRS1: 2.303%; MtTrpRS: 1.487%; Leishmania in macrophages: 1.909%. Result for CNC(=O)c1ccc(C2CCCN(C(=O)c3sc(C)nc3C)C2)nc1 (centres unmarked) was PfKRS1: 0.4071%; MtTrpRS: 2.261%; Leishmania in macrophages: 17.68% & 20.51%.

CCCc1nc(C(=O)N2CCN(S(=O)(=O)CC)CC2)cs1 gave PfKRS1: 2.184%; MtTrpRS: 0.9272%; Leishmania in macrophages: 9.974%. Result for O=C(O)C(F)(F)F.O=C(O)C(F)(F)F.[H][C@@]12CN(CCOC)CCO[C@]1([H])CN(S(=O)(=O)c1cccnc1)C2 was Leishmania in macrophages: -11.97%. With CN(C)Cc1cccc(C(=O)N2CCCC(n3cncn3)C2)c1 (centres unmarked) the screen gave PfKRS1: 0.3168%; MtTrpRS: -4.117%; Leishmania in macrophages: 8.491%. Result for CC(C)N1CCN(C(=O)Nc2cnn(CC(N)=O)c2)CC1 was PfKRS1: 3.235%; MtTrpRS: -2.301%; Leishmania in macrophages: -4.132%.

For Cc1n[nH]c(C)c1CNC(=O)N1CCCC(Cc2nccn2C)C1 (centres unmarked) the result was PfKRS1: 2.729%; MtTrpRS: 3.292%; Leishmania in macrophages: -9.675%. Result for O=C(NCC1CC1)Nc1cnc2cc(Cl)ccc2c1O was PfKRS1: -3.812%; MtTrpRS: -5.769%; Leishmania in macrophages: -15.79%. For COCc1cc(N2CCOC(c3ccc(F)cc3)C2)ncn1 (centres unmarked) the result was PfKRS1: 2.596%; MtTrpRS: 3.173%; Leishmania in macrophages: -18.01%. COc1ccc2c(c1)OCC(CNC1CCc3nc(C)nn3C1)=C2 (centres unmarked) read PfKRS1: -2.456%; MtTrpRS: -1.069%; Leishmania in macrophages: 15.89%.

With O=C(O)C(F)(F)F.[H][C@]12CCC(=O)N(c3cccnc3)[C@@]1([H])CCN2C(=O)c1occc1C the screen gave Leishmania in macrophages: 3.255%. Result for Cc1cc(F)ccc1N1CCC(N2C[C@@H](C)[C@@](C)(O)C2)CC1 was PfKRS1: -0.4996%; MtTrpRS: 1.27%; Leishmania in macrophages: 44.3%. For CC(C)c1cc(NCC2(Cn3cccn3)CC2)nc(N)n1 the result was PfKRS1: 4.282%; MtTrpRS: -3.076%; Leishmania in macrophages: 22.82%. With CS(=O)(=O)N1CCCN(C(=O)c2ccc(Cn3ccccc3=O)o2)CC1 the screen gave PfKRS1: -4.634%; MtTrpRS: 1.263%; Leishmania in macrophages: 3.254%.

CC(C)N(C)C(=O)C1=NOC2(CCN(C(=O)c3ccncc3)C2)C1 (centres unmarked) gave PfKRS1: 1.338%; MtTrpRS: -2.056%; Leishmania in macrophages: 7.21%. For CCc1nccn1-c1cncc(C2CCCN2CC(=O)N2CCCC2)n1 (centres unmarked) the result was PfKRS1: 1.98%; Leishmania in macrophages: 25.18% & -5.766%. O=C(O)C(F)(F)F.[H][C@@]12COC[C@H](C(=O)N3CCCCO3)[C@]1([H])CN(Cc1cc(C)c(C)o1)C2 gave Leishmania in macrophages: -8.077%. O=C(Nc1nc2c(s1)CN(S(=O)(=O)C1CC1)CC2)c1ccsc1 gave PfKRS1: -3.1%; MtTrpRS: -23.07%; Leishmania in macrophages: -63.88% & -1.446%.

For [H][C@@]12CNCC[C@]1(O)CCN(C(=O)C1(c3ccc(OC)cc3)CCCC1)C2 the result was Leishmania in macrophages: 12.59%. Result for O=C(NCc1ccccc1)N1CCc2ncnc(NC3CC3)c2CC1 was PfKRS1: 2.362%; Leishmania in macrophages: 24.3%. Result for CN1CCN(Cc2cccnc2)C2(CCN(c3ncccn3)C2)C1=O.O=C(O)C(F)(F)F.O=C(O)C(F)(F)F (centres unmarked) was Leishmania in macrophages: 1.294%. Cc1cnn(CCNCc2csc(-c3ccc(F)cc3)n2)c1 gave PfKRS1: -6.245%; MtTrpRS: 0.4717%; Leishmania in macrophages: 46.8%.

With Fc1ccccc1OCCN1CCCCC1Cn1cncn1 (centres unmarked) the screen gave PfKRS1: -0.614%; MtTrpRS: -3.955%; Leishmania in macrophages: 12.08%. With CCCNC(=O)CCC(=O)n1nc(C)c2ccccc21 the screen gave PfKRS1: 0.407%; MtTrpRS: -0.8804%; Leishmania in macrophages: 6.684%. With CCc1nc(C2CCCN2C(=O)c2csc(COC)n2)no1 (centres unmarked) the screen gave PfKRS1: 0.114%; MtTrpRS: -5.542%; Leishmania in macrophages: -33.26%. Result for CC(=O)Nc1nc(C2CCN(C(C)=O)CC2)cs1 was PfKRS1: -4.635%; MtTrpRS: -5.286%; Leishmania in macrophages: 5.706%.

With CC1CCN(C(=O)CCN2Cc3ccccc3C[C@H]2C(N)=O)C1 (some centres unmarked) the screen gave PfKRS1: 3.234%; MtTrpRS: -1.563%; Leishmania in macrophages: -8.931%. Result for CCCN(CC1COc2ccccc2O1)C(=O)CCN1C(=O)CCC1=O (centres unmarked) was PfKRS1: 0.3252%; MtTrpRS: -0.2649%; Leishmania in macrophages: -17.69%.

For reference, 2 entries once more:

- CCCN(CC1COc2ccccc2O1)C(=O)CCN1C(=O)CCC1=O (centres unmarked) : PfKRS1: 0.3252%; MtTrpRS: -0.2649%; Leishmania in macrophages: -17.69%
- [H][C@@]12CNCC[C@]1(O)CCN(C(=O)C1(c3ccc(OC)cc3)CCCC1)C2 : Leishmania in macrophages: 12.59%

Measurements from “University of Dundee, Small-Polar-MMV Screening Library” (2021), ChEMBL document CHEMBL3988442.